PMC11254748
Results are given in words; binding and its absence hold for the method and conditions named. For some of these results: Binding seen in cells or lysates may run through a third protein. Some entries that bind do so weakly or less than the wild type.

Amino acid sequences for entries named in this document (tags omitted).
UniProt O60934: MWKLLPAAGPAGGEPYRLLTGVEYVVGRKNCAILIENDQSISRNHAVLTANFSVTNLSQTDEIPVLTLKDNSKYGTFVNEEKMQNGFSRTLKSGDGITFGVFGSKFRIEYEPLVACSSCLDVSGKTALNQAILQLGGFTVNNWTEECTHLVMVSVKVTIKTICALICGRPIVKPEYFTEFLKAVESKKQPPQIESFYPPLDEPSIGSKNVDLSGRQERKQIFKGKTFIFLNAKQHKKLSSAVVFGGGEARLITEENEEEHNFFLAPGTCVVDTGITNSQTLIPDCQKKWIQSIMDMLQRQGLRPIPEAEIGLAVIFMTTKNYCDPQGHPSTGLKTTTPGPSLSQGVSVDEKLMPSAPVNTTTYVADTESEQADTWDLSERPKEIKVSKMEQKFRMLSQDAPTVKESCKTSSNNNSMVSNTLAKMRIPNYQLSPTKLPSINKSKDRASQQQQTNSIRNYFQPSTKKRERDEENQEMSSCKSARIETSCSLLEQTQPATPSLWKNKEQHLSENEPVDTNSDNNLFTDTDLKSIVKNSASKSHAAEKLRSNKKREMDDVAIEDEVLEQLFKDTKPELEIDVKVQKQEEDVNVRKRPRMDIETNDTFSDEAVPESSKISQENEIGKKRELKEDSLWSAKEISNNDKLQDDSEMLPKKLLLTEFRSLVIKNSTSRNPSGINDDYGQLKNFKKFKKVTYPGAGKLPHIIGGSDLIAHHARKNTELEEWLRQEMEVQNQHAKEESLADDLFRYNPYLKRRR
UniProt Q92993: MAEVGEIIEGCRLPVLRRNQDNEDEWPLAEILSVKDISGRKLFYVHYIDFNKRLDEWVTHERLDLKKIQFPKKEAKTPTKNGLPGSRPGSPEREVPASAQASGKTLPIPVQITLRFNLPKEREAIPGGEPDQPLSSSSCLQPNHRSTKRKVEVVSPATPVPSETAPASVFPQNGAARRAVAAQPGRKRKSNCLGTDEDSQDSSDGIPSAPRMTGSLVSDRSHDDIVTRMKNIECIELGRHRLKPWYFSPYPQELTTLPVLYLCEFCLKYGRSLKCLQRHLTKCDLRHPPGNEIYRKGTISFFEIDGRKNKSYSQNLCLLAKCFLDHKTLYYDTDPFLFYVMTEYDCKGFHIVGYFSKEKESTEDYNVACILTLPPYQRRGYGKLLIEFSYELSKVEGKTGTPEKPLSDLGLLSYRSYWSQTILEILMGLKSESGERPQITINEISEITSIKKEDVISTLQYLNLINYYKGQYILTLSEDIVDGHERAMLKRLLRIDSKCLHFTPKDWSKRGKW
UniProt O15379: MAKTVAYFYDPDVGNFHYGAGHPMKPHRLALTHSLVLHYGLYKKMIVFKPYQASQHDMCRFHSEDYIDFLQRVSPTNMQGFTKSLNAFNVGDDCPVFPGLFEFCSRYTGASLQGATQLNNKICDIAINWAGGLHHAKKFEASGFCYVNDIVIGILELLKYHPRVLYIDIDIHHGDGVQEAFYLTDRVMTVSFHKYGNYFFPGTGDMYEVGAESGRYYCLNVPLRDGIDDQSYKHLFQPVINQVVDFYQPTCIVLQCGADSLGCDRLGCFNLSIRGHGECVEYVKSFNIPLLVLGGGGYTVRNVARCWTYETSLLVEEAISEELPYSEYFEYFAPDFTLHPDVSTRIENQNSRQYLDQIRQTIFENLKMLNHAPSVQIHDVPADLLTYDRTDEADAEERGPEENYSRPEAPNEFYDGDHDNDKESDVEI

Tests used:
[1] = molecular target: NBS1 (in the co-IP with HDAC3) (UniProt O60934); assay: co-IP; co-IP of HDAC3 and NBS1; cells and antibodies not told
[2] = molecular target: GST-TIP60 (UniProt Q92993); assay: pull-down; purified NBS1 incubated with GST-TIP60, GST pull-down, immunoblot with anti-NBS1; both purified
[3] = molecular target: NBS1 (endogenous, wild type, AGS-P cells) (human (endogenous in AGS)) (UniProt O60934); assay: co-IP; endogenous co-immunoprecipitation in AGS-P cells, whole-cell extracts; also after cisplatin (2.5 μM, 6 h)
[4] = molecular target: NBS1 (exogenously expressed, exogenous IP) (UniProt O60934); assay: co-IP; exogenous IP assay of expressed TIP60 and NBS1; cells and tags not told

Substance: HDAC3 (in the co-IP with NBS1) (from UniProt O15379 1-428) (enzyme)
- binding [1]: binds

Substance: Purified NBS1 (not lactylated) (from UniProt O60934 1-754)
- binding [2]: binds

Substance: TIP60 (endogenous, AGS-P cells) (from UniProt Q92993 1-513) (enzyme)
- binding [3]: binds

Substance: TIP60 (exogenously expressed, exogenous IP) (from UniProt Q92993 1-513) (enzyme)
- binding [4]: binds
